Assay results as given in US11446292B2 (MedImmune Limited, priority 2019, dated 2022).

Test: general procedure: solution-phase peptide synthesis; EEDQ; EDCI.HCl
Settings: conjugation step

Substance: tert-butyl (S)-(2-((2-((1-((2-((4-amino-5-oxo-5,6,7,8-tetrahydronaphthalen-1-yl)amino)-2-oxoethyl)amino)-1-oxo-3-phenylpropan-2-yl)amino)-2-oxoethyl) amino)-2-oxoethyl) carbamate
- conjugation yield: 80.9% Yield
